Common to all, as to assay: co-IP
Assay [1] has as its target T1, Myc-Flag tagged Phb (prohibitin) (UniProt P35232).
T1 sequence: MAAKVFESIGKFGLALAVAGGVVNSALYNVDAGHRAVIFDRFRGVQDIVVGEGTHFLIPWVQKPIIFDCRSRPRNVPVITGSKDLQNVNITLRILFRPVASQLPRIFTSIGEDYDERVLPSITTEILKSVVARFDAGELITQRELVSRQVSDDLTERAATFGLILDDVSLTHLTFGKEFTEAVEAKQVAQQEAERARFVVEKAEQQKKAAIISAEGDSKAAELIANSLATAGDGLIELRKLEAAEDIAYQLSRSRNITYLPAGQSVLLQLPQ

The chains behind the UniProt entries cited, without tags or fusion partners. Where a name states a change or a piece, a line headed by the entry shows the natural chain unless it says otherwise. Residues count along the entry.
UniProt A4D1B5, whole entry: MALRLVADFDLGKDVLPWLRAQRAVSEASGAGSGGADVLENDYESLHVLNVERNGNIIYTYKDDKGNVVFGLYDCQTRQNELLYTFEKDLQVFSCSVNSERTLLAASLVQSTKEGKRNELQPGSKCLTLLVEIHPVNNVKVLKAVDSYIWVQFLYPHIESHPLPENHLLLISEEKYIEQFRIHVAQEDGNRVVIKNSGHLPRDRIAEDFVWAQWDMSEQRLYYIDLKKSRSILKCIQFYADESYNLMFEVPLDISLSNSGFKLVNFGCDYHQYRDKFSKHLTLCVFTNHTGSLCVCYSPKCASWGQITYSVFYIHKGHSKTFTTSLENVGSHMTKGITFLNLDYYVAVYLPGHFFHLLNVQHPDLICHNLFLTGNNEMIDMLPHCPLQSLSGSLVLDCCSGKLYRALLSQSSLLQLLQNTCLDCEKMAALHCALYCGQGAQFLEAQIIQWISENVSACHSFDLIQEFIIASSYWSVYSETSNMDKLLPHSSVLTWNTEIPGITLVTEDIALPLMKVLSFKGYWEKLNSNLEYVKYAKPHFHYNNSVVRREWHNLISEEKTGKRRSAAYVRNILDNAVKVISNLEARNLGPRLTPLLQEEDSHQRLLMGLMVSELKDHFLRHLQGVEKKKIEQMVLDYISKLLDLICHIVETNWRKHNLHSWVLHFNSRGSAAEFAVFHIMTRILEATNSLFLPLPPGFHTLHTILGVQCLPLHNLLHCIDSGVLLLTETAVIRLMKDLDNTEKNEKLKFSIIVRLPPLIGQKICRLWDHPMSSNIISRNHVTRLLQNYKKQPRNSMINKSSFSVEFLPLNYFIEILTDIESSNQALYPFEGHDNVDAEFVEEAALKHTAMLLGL
UniProt A4D1B5, 733-854: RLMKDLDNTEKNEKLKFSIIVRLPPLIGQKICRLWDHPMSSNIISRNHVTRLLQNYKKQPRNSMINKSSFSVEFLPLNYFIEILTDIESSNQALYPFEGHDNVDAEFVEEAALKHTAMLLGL

Assay [2] concerns the target T2, endogenous Fe65 (A549 cells) (human (endogenous in A549)) (UniProt O00213).
T2 sequence: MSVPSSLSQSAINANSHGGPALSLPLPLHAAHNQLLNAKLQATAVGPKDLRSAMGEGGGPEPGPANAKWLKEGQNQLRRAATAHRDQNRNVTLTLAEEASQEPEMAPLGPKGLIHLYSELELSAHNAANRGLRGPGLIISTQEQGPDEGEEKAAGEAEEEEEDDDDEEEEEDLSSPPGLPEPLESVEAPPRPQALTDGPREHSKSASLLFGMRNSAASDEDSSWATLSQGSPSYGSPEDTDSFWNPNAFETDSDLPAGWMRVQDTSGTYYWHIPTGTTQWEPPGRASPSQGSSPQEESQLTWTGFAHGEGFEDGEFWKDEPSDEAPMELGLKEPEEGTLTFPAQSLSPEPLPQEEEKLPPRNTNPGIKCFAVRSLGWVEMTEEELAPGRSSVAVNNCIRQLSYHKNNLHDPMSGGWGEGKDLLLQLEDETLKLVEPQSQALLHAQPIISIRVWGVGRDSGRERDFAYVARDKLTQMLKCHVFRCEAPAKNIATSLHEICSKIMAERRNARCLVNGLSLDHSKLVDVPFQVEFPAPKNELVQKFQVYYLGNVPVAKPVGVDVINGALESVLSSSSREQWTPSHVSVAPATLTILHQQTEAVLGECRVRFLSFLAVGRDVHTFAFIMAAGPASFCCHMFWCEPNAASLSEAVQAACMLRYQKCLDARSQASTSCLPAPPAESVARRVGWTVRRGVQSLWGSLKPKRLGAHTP

Assay [3] deals with T3, full length Fe65 (Flag tagged) (UniProt O00213).
T3 sequence: T2 sequence

We go through four substances from article doi:10.1101/2020.11.17.385245.

These are yes or no findings as the source states them, for the method shown. In cells and extracts the contact can be indirect. Some entries that bind do so weakly or less than the wild type. For some of these results: Sequences can lack the tags named with a protein.

“GSAP (HA-tagged), co-IP with PHB (Fig. S1D) (from UniProt A4D1B5 1-854)”: in assay [1], the binding result was “binds”. Turning to “endogenous GSAP (from UniProt A4D1B5 1-854)”, in assay [2], the binding result is “binds”. In the case of “full length GSAP (HA tagged), expressed in HEK293T cells (from UniProt A4D1B5 1-854)”, the binding result in assay [3] was “binds”. For “human GSAP-16k with HA tag (GSAP carboxyl-terminal 16K domain) (from UniProt A4D1B5 733-854) (domain or fragment)”, the binding entry in assay [3] is given as “binds”.
